Source: PMC2680618
Results are given in words; binding and its absence hold for the method and conditions named. Binding seen in cells or lysates may run through a third protein. Some binding calls cover weakened binding; strength is not graded here. For some assays here: Sequences can lack the tags named with a protein. Values belong to the binder of their own block, whether it stands above or below them.

Assays:
[1] = target: T1, BMI1 (endogenous, mouse thymocytes) (mouse (endogenous in thymocytes)) (UniProt P25916); assay: co-IP; wild type non-transfected mouse thymocytes; Nuclear Complex Co-IP Kit (Active Motif); precipitated with mouse anti-BMI1, blotted with a CDC6 antibody
T1 sequence: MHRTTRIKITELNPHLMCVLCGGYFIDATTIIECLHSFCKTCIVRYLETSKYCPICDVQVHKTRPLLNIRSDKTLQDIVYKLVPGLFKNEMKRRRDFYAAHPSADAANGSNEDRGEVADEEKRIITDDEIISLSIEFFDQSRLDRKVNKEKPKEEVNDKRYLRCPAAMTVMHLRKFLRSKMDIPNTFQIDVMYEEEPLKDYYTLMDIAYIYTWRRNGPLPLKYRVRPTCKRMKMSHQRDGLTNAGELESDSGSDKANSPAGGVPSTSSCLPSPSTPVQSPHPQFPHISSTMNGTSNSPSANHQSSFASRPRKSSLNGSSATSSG

HA-CDC6 = target: T2, HA-CDC6 (UniProt O89033); assay: co-IP; NIH3T3 cells transiently transfected with pCG-HAcdc6, 72 h; Nuclear Complex Co-IP Kit (Active Motif); precipitated with mouse anti-HA, blotted with a BMI1 antibody
T2 sequence: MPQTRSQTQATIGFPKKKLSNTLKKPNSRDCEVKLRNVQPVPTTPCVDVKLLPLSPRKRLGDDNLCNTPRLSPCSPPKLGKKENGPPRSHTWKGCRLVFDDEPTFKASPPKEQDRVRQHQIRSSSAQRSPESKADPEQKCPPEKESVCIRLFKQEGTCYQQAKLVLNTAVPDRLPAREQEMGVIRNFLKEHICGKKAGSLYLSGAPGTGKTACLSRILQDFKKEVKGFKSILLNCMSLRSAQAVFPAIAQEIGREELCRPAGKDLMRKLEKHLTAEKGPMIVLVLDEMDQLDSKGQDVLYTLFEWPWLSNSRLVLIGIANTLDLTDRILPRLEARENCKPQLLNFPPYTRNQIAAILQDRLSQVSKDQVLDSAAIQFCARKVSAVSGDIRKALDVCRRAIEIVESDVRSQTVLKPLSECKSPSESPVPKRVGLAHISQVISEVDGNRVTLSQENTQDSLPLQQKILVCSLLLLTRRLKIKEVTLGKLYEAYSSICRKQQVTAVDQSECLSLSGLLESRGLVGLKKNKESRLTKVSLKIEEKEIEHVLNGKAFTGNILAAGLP

binding [1]: binds
B1: CDC6 (endogenous, mouse thymocytes) (protein, UniProt O89033 1-562)
chain: T2 sequence

binding (HA-CDC6): binds
B2: BMI1 (endogenous, NIH3T3 cells) (protein, UniProt P25916 1-324)
chain: T1 sequence
